The values that follow come from patent publication US8614236B2 (University of Washington, priority 2006, dated 2013).

This assay deals with PASMCs. The experiment in a line: Hypoxia-induced increase in [Ca2+]i in PASMCs (4% O2). Conditions: Rattus norvegicus, PASMC, from concentration-inhibition plot, read-out: IC50 for hypoxia-induced rise in [Ca^2+]i. Type of assay: cell-based. Here is the method:
Intrapulmonary arteries (200-600 μm o.d.) were isolated from male Wistar rats (250-350 g) and cleaned of connective tissue. After the lumen was gently rubbed with a cotton swab to remove the endothelial cells, the arteries were allowed to recover for 30 minutes in cold (4° C.) HBSS containing (in mM): 130 NaCl, 5 KCl, 1.2 MgCl2, 1.5 CaCl2, 10 N-[2-hydroxyethyl]piperazine-N′-[2-ethanesulfonic acid] (HEPES) and 10 glucose, with pH adjusted to 7.2 with 5 M NaOH, followed by 20 minutes in reduced-Ca^2+ (20 μM CaCl2) HBSS at room temperature. […] Following digestion, single smooth muscle cells were dispersed by gentle trituration with a wide-bore transfer pipette in Ca^2+-free HBSS and the cell suspension was placed on 25 mm glass cover slips. […]
Acute hypoxia increases intracellular [Ca^2+] in pulmonary arterial smooth muscle by enhancing capacitative Ca^2+ entry. […] Ratiometric measurement of fluorescence from the dye was performed on a workstation (Intracellular Imaging Inc, Cincinnati, Ohio) consisting of a Nikon TSE 100 Ellipse inverted microscope with epi-fluorescence attachments. The light beam from a xenon arc lamp was filtered at 340 and 380 nm, and focused onto the PASMCS under examination via a 20× fluorescence objective (Super Fluor 20, Nikon). Light emitted from the cell at 510 nm was returned through the objective and detected by a cooled CCD imaging camera. […]

A word on the IC50: it is the concentration needed to halve the response being measured. For the compound `CC(=O)Nc1nnc(S(N)(=O)=O)s1` [AZ, acetazolamide], the 50% inhibitory concentration (IC50) is 50 µM.
